In all, about 390,000 compounds went through this assay and about 4,000 (1%) were called active. The inconclusive results got no clear call from the source; some entries with a clear call stand among them for comparison. The call rests on the fitted dose curve; in most records, active means well fitted inhibition curve with a large enough effect; inconclusive means small, poorly fitted or top-dose-only effect, or another doubt; inactive means no such curve, though single readings can be large or run the other way. Potencies beside an inconclusive call are fits to weak or partial responses and may not hold up.
Each compound was assayed against DNA polymerase iota (Homo sapiens) (UniProt Q9UNA4) (assay: qHTS for Inhibitors of Polymerase Iota). Details: Pol iota fluorescent replication assay, 10 min; series mostly up to 115 µM; activity, negative = inhibition: at the top concentration.
In short: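 Pol iota at 10 nM preincubated 15 min with compounds at room temperature; reaction started with fluorescent substrate, 50 nM final. Fluorescence read kinetically at 0 and 10 min; buffer-only wells as negative control.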
Potency means the concentration at half of the fitted maximal effect.

Chains of the proteins cited; added tags and fusions are not shown. Lines headed by an entry give the natural chain unless they say otherwise; changes in a name come on top.
UniProt Q9UNA4: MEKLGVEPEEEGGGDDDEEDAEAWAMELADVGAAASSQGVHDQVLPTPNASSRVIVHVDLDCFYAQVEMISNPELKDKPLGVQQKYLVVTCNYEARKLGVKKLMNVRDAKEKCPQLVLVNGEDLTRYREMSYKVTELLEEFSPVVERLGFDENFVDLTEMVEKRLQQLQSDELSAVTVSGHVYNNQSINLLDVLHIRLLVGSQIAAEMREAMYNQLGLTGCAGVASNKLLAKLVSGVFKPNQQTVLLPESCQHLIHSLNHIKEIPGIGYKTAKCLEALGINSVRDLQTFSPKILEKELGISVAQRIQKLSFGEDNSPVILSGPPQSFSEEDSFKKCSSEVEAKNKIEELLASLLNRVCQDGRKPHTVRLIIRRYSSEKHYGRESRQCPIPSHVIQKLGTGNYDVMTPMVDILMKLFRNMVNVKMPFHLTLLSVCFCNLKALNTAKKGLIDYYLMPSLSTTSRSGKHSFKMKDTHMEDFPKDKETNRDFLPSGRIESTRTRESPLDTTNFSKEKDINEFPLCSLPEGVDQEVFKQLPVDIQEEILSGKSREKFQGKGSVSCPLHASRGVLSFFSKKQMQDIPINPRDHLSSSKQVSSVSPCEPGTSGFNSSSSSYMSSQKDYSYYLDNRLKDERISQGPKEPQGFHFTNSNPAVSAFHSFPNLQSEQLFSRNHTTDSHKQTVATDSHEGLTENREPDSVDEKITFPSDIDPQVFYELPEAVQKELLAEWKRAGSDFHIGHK

Potency, inconclusive:
O=C(COc1ccc2c(c1)oc(=O)c1ccccc12)NC(Cc1ccc(Cl)cc1)C(=O)O (stereo unspecified) 89.1 µM [inhibitor, single point]
CCOC(=O)c1c(-c2cccs2)csc1NC(=O)CN1CC(C)OC(C)C1 (stereo unspecified) 28.2 µM [inhibitor, partial curve, poor fit]
Cc1ccc(NC(=O)C2CC2)cc1S(=O)(=O)N1CCOCC1 100 µM [inhibitor, partial curve, poor fit]
CCn1c(COc2ccc3c(c2)OCO3)nnc1SCC(=O)c1ccccc1 8.91 µM [inhibitor, full curve, poor fit]
COC(=O)C1=C(C)N(Cc2ccccc2)C(=O)N[C@H]1c1cccs1 14.1 µM [inhibitor, partial curve, poor fit]
CNc1ncc(C(=O)c2ccc(Cl)c(Cl)c2)s1 56.2 µM [inhibitor, partial curve, poor fit]
Nc1nc(-c2ccc3c(c2)OCCO3)cs1 7.94 µM [inhibitor, partial curve, poor fit]
COc1cc(NC(=O)C2CCCN(c3ncnc4c3nc3n4CCCCC3)C2)cc(OC)c1OC (stereo unspecified) 100 µM [inhibitor, single point]
Cc1cccc(NC(=O)c2ccccc2NC(=O)c2ccco2)c1 89.1 µM [inhibitor, single point]
O=C(CC1Oc2ccccc2NC1=O)NCCCN1CCN(Cc2ccccc2)CC1 (stereo unspecified) 79.4 µM [inhibitor, partial curve, poor fit]
CC(=O)C1=C(O)C(=O)N(CCc2c[nH]c3ccccc23)C1c1ccco1 (stereo unspecified) 25.1 µM [inhibitor, partial curve, poor fit]
COc1ccc(CC(=O)NCC(c2cccs2)S(=O)(=O)c2ccc(C)cc2)cc1 (stereo unspecified) 89.1 µM [inhibitor, single point]
CC(=O)N1Cc2ccccc2CC1C(=O)O (stereo unspecified) 28.2 µM [inhibitor, single point]
O=S(=O)(NCC1CN(S(=O)(=O)c2c(F)cccc2F)C1)c1ccc2c(c1)OCCO2 89.1 µM [inhibitor, single point]
CCC(CC)C(=O)Nc1nnc(S(=O)(=O)Nc2ccc(OC)cc2)s1 39.8 µM [inhibitor, partial curve, poor fit]
O=C(c1cnccn1)N(c1ccccc1)C1(C(=O)NC2CCCCC2)CCCCC1 22.4 µM [inhibitor, partial curve, poor fit]
Cc1ccccc1OCc1nc2ccc(S(=O)(=O)N3CCOCC3)cc2[nH]1 28.2 µM [inhibitor, single point]
COc1ccc(NC(=O)c2cccc(NC3=NC4CS(=O)(=O)CC4S3)c2)cc1Cl (stereo unspecified) 8.91 µM [inhibitor, full curve, poor fit]
COc1cc(C(=O)n2nc(C)c(Sc3ccc(Cl)cc3)c2C)cc(OC)c1OC 79.4 µM [inhibitor, single point]
CN(C)S(=O)(=O)N(CC(=O)Nc1cccc(F)c1)c1ccccc1 70.8 µM [inhibitor, full curve]
O=C(NC1CCCC1)c1sc(=S)n2c1[nH]c(=O)c1ccccc12 20 µM [inhibitor, partial curve, poor fit]
CCOC(=O)Cc1nnc2c(Nc3ccc(Cl)cc3)nc3nonc3n12 39.8 µM [inhibitor, single point]
COC(=O)c1cc(COc2ccc3oc(C)c(C(=O)OC)c3c2)c(C)o1 112 µM [inhibitor, single point]
N#Cc1cc2sc3nnc(-c4ccncc4)n3c2cc1C#N 39.8 µM [inhibitor, single point]
COc1ccc(NC(=O)CN(c2cc(C)cc(C)c2)S(=O)(=O)c2c(C)noc2C)cc1OC 31.6 µM [inhibitor, partial curve, poor fit]
COc1cccc(NC(=O)c2cc(-c3ccc(C)o3)nc3ccccc23)c1 44.7 µM [inhibitor, partial curve]
COc1ccc2cc(C(=O)OC(C)C)sc(=O)c2c1OC 28.2 µM [inhibitor, single point]
COc1ccc(/C(O)=C2\C(=O)C(=O)N(c3cc(C)on3)C2c2ccccc2OC)cc1C (stereo unspecified) 22.4 µM [inhibitor, single point]
Cc1ccc2oc(C(=O)Nc3cccc(Cl)c3)cc(=O)c2c1 89.1 µM [inhibitor, partial curve, poor fit]
CCc1ccc(CN2CCCC(C(=O)Nc3ccccc3-c3ccc(OC)cc3)C2)o1 (stereo unspecified) 17.8 µM [inhibitor, single point]
O=C(Nc1ccc2c(c1)oc1ccccc12)c1ccc(Br)o1 12.6 µM [inhibitor, full curve, poor fit]
O=C(CCN1C(=O)/C(=C/c2ccc(F)cc2)SC1=S)Nc1cc([N+](=O)[O-])ccc1O 12.6 µM [inhibitor, partial curve]

Potency, active:
CCNC(=O)COC(=O)c1cc(-c2ccco2)nc2ccccc12 8.91 µM
CCOC(=O)Cc1nnc(NC(=O)c2ncn[nH]2)s1 7.08 µM
CC1OC(CC(=O)O)CC2=C1C(=O)c1c(O)cccc1C2=O (stereo unspecified) 3.16 µM

activity, negative = inhibition, inactive:
Cn1c(=O)oc2cc(S(=O)(=O)Nc3cccc(C(=O)O)c3)ccc21 7.22%
CCCCOc1ccccc1CC1C(=O)Nc2ccc(Br)cc21 (stereo unspecified) 9.68%
O=C(N/N=C/c1ccc(OC(F)F)cc1)c1ccc(Br)cc1 -13.8%
Cc1oc(-c2ccccc2Cl)nc1CSc1nc2ncccc2[nH]1 21.2%
NC1(C(=O)O)CCc2cc(C(=O)O)ccc21 (stereo unspecified) -10.7% [at 58.9 µM]
CC(C)c1ccc(Nc2cc(C(=O)NC3CCCCC3)c3ccccc3n2)cc1 8.21%

Reprinted from the results shown (three entries):
activity, negative = inhibition, inactive:
CCCCOc1ccccc1CC1C(=O)Nc2ccc(Br)cc21 (stereo unspecified) 9.68%
O=C(N/N=C/c1ccc(OC(F)F)cc1)c1ccc(Br)cc1 -13.8%
Cc1oc(-c2ccccc2Cl)nc1CSc1nc2ncccc2[nH]1 21.2%

Reference: PubChem BioAssay AID588590 (National Center for Advancing Translational Sciences (NCATS), 2011)
